Measurements published in doi:10.1101/2023.08.05.552118.
Results are given in words; binding and its absence hold for the method and conditions named. In cells and extracts the contact can be indirect. Some binding calls cover weakened binding; strength is not graded here. For some of these results: Tags and fused reporters may be left off the sequences shown.

Sequences of proteins named here, by UniProt entry; tags and fusion partners are left off. A change or cut given only in a name is not applied to a line headed by its entry.
UniProt Q63HN8, whole entry: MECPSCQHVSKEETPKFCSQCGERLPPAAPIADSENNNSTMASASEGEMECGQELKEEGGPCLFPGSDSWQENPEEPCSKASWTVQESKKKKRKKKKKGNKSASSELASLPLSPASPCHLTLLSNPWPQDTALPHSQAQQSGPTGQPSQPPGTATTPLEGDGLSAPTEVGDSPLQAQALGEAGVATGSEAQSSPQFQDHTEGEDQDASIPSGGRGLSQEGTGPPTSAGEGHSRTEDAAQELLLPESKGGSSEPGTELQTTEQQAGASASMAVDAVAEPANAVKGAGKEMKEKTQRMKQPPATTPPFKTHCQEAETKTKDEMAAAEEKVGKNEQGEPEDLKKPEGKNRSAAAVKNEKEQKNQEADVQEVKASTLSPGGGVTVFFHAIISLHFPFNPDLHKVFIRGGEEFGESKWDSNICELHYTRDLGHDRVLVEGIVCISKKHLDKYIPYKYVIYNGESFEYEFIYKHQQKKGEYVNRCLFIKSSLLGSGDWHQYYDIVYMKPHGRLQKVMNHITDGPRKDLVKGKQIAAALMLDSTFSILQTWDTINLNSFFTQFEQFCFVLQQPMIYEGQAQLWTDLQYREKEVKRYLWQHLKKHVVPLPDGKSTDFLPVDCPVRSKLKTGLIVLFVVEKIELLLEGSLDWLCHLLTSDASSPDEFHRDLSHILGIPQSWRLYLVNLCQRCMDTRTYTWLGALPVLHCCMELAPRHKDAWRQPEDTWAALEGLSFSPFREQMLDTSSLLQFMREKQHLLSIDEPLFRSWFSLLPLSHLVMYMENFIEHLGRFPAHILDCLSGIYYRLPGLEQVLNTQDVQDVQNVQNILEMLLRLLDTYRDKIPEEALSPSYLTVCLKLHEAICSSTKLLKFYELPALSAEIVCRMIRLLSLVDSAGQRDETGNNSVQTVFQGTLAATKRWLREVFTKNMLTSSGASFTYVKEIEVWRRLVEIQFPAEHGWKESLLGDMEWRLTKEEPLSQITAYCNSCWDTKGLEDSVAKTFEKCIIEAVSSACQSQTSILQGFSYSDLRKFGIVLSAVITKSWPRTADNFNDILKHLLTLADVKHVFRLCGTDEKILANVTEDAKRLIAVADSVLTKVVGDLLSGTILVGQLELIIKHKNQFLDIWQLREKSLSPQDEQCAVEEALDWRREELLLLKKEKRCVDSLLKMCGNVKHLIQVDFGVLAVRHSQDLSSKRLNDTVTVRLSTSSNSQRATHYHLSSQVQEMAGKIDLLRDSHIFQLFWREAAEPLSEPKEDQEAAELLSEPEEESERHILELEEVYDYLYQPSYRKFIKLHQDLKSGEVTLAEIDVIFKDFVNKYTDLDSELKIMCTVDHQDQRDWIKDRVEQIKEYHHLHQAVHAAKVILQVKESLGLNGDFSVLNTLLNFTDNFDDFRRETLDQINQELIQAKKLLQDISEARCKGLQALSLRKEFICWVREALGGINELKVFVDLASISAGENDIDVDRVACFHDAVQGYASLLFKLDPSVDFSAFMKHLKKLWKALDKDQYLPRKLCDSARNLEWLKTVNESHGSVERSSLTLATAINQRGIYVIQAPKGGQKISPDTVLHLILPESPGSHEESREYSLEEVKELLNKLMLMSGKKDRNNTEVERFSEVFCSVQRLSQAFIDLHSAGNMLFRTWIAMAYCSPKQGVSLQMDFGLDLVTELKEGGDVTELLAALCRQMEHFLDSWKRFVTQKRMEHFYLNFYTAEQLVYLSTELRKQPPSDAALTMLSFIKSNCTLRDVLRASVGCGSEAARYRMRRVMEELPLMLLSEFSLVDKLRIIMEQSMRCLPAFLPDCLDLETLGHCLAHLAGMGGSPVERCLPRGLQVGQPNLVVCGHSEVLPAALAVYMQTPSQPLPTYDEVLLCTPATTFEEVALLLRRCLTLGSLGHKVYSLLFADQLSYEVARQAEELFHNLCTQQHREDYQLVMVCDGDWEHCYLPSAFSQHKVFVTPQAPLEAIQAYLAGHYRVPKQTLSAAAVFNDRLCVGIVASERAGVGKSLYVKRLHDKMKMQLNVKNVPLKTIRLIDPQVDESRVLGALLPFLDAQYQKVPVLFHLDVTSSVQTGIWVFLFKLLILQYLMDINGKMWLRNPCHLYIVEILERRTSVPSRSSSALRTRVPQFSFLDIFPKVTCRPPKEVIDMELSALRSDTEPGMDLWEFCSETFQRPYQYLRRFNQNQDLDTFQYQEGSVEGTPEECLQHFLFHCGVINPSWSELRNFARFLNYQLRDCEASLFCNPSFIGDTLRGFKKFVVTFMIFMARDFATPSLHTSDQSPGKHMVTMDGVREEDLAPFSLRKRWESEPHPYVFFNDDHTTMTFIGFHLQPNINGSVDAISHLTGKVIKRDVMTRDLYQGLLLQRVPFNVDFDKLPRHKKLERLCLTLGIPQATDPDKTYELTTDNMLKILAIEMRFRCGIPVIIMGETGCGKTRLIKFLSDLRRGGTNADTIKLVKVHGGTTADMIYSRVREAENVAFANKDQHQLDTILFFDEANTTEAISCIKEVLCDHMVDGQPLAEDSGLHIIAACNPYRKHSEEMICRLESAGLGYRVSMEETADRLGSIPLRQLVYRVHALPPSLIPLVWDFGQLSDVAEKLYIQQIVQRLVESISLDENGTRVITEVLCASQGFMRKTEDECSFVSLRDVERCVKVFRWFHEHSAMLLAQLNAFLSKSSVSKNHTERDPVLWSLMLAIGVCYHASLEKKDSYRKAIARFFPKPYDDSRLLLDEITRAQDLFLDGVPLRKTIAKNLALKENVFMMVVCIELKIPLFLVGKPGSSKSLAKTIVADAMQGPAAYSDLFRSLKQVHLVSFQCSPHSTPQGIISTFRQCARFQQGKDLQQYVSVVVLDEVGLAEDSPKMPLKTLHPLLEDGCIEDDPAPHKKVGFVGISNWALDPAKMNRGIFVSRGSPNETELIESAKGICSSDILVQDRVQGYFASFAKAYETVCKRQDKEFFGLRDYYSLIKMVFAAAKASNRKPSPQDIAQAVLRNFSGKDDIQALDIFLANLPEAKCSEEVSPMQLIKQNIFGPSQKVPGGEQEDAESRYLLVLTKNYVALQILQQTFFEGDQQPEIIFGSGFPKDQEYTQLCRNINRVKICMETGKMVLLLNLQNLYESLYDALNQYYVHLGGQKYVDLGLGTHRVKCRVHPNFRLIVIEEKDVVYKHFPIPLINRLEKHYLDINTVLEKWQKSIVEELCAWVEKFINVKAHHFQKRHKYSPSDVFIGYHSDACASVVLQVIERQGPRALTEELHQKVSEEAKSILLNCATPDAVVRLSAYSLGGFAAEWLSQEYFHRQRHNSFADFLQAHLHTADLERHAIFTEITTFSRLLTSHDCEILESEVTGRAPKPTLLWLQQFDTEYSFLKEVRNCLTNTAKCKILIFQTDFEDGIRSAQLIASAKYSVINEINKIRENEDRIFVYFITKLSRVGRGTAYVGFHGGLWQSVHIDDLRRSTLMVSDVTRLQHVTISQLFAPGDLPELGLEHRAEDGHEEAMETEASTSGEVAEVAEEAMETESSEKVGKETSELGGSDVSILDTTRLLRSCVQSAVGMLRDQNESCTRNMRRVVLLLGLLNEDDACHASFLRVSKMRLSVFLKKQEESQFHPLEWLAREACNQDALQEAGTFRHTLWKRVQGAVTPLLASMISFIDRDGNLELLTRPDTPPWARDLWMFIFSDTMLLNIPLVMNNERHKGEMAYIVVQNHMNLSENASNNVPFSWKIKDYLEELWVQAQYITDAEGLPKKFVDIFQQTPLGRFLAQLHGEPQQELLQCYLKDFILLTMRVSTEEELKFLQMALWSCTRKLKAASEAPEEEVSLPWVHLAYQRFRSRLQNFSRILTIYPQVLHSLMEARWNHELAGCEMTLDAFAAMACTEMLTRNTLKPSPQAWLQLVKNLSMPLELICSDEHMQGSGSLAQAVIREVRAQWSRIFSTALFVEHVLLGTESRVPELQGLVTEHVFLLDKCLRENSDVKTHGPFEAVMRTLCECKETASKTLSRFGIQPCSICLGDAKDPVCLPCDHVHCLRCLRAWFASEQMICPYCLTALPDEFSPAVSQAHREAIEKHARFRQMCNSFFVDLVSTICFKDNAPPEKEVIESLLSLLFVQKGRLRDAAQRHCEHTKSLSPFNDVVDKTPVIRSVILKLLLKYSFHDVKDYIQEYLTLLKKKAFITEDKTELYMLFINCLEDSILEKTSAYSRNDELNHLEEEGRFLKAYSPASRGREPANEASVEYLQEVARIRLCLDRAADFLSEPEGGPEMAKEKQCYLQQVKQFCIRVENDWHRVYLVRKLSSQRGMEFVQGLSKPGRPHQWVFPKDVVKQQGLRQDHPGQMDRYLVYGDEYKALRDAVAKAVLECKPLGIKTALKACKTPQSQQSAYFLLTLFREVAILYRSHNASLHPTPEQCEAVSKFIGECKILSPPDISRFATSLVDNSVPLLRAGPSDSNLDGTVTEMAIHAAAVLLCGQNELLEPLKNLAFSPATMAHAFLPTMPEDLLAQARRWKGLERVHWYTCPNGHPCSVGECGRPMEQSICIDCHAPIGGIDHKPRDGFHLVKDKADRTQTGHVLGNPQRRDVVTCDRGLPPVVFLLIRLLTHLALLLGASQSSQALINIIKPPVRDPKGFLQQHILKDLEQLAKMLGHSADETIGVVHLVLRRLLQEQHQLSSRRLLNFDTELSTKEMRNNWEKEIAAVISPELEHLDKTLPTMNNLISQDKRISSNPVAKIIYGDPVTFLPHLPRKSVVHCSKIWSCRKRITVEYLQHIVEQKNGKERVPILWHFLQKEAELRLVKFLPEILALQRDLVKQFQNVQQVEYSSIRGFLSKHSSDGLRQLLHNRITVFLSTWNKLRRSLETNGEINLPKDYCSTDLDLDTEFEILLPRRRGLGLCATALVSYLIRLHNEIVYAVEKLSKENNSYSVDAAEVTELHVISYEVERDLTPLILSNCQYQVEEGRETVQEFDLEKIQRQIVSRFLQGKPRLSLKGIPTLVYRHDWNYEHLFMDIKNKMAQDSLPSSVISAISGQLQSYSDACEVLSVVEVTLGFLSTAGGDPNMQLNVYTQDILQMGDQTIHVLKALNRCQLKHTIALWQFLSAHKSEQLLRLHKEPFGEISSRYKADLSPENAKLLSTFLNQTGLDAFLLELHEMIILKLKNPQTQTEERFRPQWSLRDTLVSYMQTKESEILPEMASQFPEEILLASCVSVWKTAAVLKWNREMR

T1: HA-tagged substrate trapping mutant (D181A) of mouse PTP1B (mouse) (UniProt P35821)
T1 sequence: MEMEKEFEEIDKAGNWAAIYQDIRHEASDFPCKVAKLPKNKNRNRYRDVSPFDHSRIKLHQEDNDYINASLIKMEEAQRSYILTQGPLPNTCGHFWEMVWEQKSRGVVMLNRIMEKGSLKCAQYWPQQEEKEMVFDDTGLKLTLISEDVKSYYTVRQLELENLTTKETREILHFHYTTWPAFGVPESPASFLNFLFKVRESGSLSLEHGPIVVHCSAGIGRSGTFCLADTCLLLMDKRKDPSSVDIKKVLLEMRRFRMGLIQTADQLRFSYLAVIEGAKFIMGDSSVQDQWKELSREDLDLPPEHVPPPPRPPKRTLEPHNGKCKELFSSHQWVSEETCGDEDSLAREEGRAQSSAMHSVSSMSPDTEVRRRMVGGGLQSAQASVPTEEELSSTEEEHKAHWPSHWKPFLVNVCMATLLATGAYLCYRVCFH


Columns and labels:
Assay in all cases: co-IP
[1] = molecular target: T1, HA-tagged substrate trapping mutant (D181A) of mouse PTP1B (mouse)
[2] = molecular target: 3x-FLAG-RNF213^Y1275F (UniProt Q63HN8)
[3] = molecular target: 3x-FLAG-RNF213 (UniProt Q63HN8)

binding [1] | Molecule | further results
binds | 3x-FLAG-RNF213 (from UniProt Q63HN8 1-5207) | 
binds weakly | 3x-FLAG-RNF213^Y1275F (from UniProt Q63HN8 1-5207) | 
 | GFP-RNF213 (from UniProt Q63HN8 1-5207) | binding [2]: binds
 | SPATA2 (protein, UniProt Q9UM82 1-520) MGKPSSMDTKFKDDLFRKYVQFHESKVDTTTSRQRPGSDECLRVAASTLLSLHKVDPFYRFRLIQFYEVVESSLRSLSSSSLRALHGAFSMLETVGINLFLYPWKKEFRSIKTYTGPFVYYVKSTLLEEDIRAILSCMGYTPELGTAYKLRELVETLQVKMVSFELFLAKVECEQMLEIHSQVKDKGYSELDIVSERKSSAEDVRGCSDALRRRAEGREHLTASMSRVALQKSASERAAKDYYKPRVTKPSRSVDAYDSYWESRKPPLKASLSLRKEPVATDVGDDLKDEIIRPSPSLLTMASSPHGSPDVLPPASPSNGPALLRGTYFSTQDDVDLYTDSEPRATYRRQDALRPDVWLLRNDAHSLYHKRSPPAKESALSKCQSCGLSCSSSLCQRCDSLLTCPPASKPSAFPSKASTHDSLAHGASLREKYPGQTQGLDRLPHLHSKSKPSTTPTSRCGFCNRPGATNTCTQCSKVSCDACLSAYHYDPCYKKSELHKFMPNNQLNYKSTQLSHLVYR | binding [3]: binds
